Data on 2 molecules can be found in paper PMC5112536.

By UniProt entry, the sequences of proteins in these tests, tags left out. Where a name states a change or a piece, a line headed by the entry shows the natural chain unless it says otherwise.
UniProt Q96BA8: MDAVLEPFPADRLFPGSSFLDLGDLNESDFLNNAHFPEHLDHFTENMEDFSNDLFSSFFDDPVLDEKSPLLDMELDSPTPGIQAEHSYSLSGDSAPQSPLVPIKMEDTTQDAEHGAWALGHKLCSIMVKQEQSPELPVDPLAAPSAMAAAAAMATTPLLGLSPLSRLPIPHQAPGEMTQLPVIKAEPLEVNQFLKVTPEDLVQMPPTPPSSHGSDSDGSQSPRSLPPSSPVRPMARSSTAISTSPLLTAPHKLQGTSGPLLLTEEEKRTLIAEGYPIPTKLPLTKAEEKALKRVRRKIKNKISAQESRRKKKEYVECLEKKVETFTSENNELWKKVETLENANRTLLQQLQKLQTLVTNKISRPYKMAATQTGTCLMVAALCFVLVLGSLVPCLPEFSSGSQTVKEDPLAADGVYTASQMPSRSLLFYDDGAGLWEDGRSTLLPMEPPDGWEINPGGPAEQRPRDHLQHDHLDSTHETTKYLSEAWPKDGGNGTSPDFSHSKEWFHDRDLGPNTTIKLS

Results are given in words; binding and its absence hold for the method and conditions named. In cells and extracts the contact can be indirect. For part of these data: Binding can be weak; no strength is given. Where a sequence is shown, tags or fusion partners need not be part of it.

Common to all, as to assay: co-IP; HEK293T cells co-transfected with the expression vectors; lysates incubated with anti-FLAG or anti-Myc antibodies overnight, protein G-agarose at 4 °C for 3 hours, washed with TNE buffer (10 mM Tris, 1 mM EDTA, 150 mM NaCl); western blot with anti-FLAG or anti-Myc
In general terms: In western blotting, separated proteins are transferred to a membrane and probed.

The target of assay [1] is T1, Myc-tagged full-length AIbZIP (human) (UniProt Q8TEY5).
T1 sequence: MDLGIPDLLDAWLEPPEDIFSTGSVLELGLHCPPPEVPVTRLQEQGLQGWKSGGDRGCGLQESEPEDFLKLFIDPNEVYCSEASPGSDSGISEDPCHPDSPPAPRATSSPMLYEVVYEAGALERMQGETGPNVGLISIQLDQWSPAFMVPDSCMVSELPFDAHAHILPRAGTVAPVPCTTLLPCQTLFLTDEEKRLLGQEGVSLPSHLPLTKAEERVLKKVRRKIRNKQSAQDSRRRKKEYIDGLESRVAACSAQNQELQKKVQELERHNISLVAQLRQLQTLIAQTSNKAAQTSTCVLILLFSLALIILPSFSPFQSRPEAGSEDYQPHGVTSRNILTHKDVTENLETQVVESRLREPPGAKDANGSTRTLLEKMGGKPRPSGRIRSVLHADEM

Another assay deals with FLAG-OASIS ΔbZIP (human) (UniProt Q96BA8).
The target of the next assay is N-terminal OASIS (human).

As to “N-terminal OASIS (human) (domain or fragment)”, in assay [1], the binding entry is reported as “binds”.

B1: Myc-tagged full-length AIbZIP (protein, UniProt Q8TEY5 1-395)
chain: T1 sequence
Regarding B1, the binding result with FLAG-OASIS ΔbZIP (human) is “no binding”; with N-terminal OASIS (human) it was “binds”.
